Assay results published in PMC10591015.
Results are given in words; binding and its absence hold for the method and conditions named. In cells and extracts the contact can be indirect. A yes stands for co-enrichment or nearness to the bait. Other partners may have been found.

Amino acid sequences for entries named in this document (tags omitted). A change or cut given only in a name is not applied to a line headed by its entry. Chains listed by the source or under a name are the forms on record and can include a tag or linker.
C-terminal APEX2-tagged NELFB WT (Q8C4Y3, form named): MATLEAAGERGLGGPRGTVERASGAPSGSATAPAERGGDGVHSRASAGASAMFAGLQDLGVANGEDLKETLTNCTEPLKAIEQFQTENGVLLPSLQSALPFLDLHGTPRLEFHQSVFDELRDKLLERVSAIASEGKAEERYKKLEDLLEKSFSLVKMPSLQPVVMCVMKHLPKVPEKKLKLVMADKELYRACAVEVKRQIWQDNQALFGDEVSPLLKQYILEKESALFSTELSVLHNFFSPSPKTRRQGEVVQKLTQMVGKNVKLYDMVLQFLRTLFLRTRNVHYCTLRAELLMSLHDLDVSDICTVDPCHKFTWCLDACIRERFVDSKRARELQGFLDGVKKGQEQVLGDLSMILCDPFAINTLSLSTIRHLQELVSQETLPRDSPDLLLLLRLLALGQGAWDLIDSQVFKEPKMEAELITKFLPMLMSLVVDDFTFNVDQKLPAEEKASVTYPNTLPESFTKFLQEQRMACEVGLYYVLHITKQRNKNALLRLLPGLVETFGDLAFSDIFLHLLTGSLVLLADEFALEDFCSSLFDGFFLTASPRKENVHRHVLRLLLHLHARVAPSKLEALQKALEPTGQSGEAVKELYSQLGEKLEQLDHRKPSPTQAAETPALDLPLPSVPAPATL
UniProt P42337: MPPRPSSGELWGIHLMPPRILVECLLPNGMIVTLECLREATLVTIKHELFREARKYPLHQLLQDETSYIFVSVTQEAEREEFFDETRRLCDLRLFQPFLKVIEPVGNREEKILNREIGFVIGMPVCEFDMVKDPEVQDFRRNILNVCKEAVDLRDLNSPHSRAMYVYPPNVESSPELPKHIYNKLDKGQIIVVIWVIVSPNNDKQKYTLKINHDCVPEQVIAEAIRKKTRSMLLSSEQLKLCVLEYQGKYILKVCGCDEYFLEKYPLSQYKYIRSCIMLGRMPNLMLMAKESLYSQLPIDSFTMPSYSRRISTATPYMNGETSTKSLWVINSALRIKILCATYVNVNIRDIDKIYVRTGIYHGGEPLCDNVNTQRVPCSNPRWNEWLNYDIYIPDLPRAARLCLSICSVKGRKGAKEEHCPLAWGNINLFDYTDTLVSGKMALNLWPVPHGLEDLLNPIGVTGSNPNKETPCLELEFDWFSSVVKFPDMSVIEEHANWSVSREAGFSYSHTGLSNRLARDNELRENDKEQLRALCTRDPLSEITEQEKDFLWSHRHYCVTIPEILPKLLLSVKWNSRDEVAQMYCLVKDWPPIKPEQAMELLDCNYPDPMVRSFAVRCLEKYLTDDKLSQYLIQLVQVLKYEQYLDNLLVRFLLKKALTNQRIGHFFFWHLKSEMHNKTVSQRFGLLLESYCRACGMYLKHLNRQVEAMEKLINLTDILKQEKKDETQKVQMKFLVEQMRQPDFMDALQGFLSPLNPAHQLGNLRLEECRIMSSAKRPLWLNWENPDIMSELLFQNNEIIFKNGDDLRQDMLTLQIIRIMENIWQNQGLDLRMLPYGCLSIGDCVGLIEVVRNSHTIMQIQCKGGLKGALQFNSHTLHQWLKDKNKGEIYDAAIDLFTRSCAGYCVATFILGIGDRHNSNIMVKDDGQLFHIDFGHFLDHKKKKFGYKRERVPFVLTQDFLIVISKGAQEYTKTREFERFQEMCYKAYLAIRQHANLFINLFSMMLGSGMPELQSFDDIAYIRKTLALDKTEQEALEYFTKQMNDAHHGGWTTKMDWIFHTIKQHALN

Target: C-terminal APEX2-tagged NELFB WT (mouse) (UniProt Q8C4Y3)
Test: proximity labelling; stable MEF lines with C-terminal APEX2-tagged NELFB (WT, MT144, MT194); NELFB-AID degraded by IAA before labelling; biotin-phenol 30 min, 1 mM H2O2 1 min; streptavidin bead pull-down of the lysate, Western blotting; control cells without H2O2

- binding: binds
Substance: PI3Kα (PI3 Kinase p110α) (from UniProt P42337 1-1068) (enzyme)
